Structures can show the parent of a compound that is named as a salt. ± gives the standard deviation of the averaged measurements. The list shows a part of the results. These are raw signals, not scaled to a control.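 A single yeast strain with four plasmids, each encoding a fluorescent protein and an amino-acid or uracil biosynthesis gene, seeds the community. Stochastic plasmid loss yields mixed prototroph and auxotroph subpopulations. Fixed cells were counted via automated confocal fluorescence imaging; DMSO-treated wells were the vehicle reference.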
The compounds below were run on Saccharomyces cerevisiae BY4741 SeMeCo community (assay: imaged cell count per well (cells); higher = more cells). Settings: 10 µM; 24 h; SM minimal medium.
Experimental: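 Same SeMeCo high-content imaging drug screen: Selleck FDA-approved drugs at 10 µM, 24 h in SM medium, 384-well plates, 3 replicates.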

Row | SMILES | imaged cell count per well
1 | O=C(O)c1cc(-c2ccc(F)cc2F)ccc1O [Diflunisal] | 20500 ± 3800
2 | CCC[S+]([O-])c1ccc2[nH]c(NC(=O)OC)nc2c1 (centres undefined) [Albendazole Oxide] | 23900 ± 9200
3 | Nc1nc(N)c2nc(-c3ccccc3)c(N)nc2n1 [Triamterene] | 26400 ± 5000
4 | CNCCCN1c2ccccc2CCc2ccccc21 [Desipramine Hydrochloride] | 29000 ± 2600
5 | OCCN1CCN(CCCN2c3ccccc3Sc3ccc(C(F)(F)F)cc32)CC1 [Fluphenazine dihydrochloride] | 20800 ± 5500
6 | COc1cccc(-c2c(C)n(Cc3c(F)cccc3C(F)(F)F)c(=O)n(C[C@H](NCCCC(=O)O)c3ccccc3)c2=O)c1F [Elagolix Sodium] | 23900 ± 13000
7 | O=C1Cc2cc(CCN3CCN(c4nsc5ccccc45)CC3)c(Cl)cc2N1 [Ziprasidone HCl] | 26300 ± 1200
8 | NC[C@@H]1O[C@H](O[C@H]2[C@@H](O)[C@H](O[C@@H]3[C@@H](O)[C@H](N)C[C@H](N)[C@H]3O[C@H]3O[C@H](CO)[C@@H](O)[C@H](O)[C@H]3N)O[C@@H]2CO)[C@H](N)[C@@H](O)[C@@H]1O [Paromomycin Sulfate] | 19800 ± 4200
9 | C[C@H]1COc2c(N3CCN(C)CC3)c(F)cc3c(=O)c(C(=O)O)cn1c23 [Levofloxacin hydrate] | 20300 ± 6900
10 | Cc1ccc(-c2cc(C(F)(F)F)nn2-c2ccc(S(N)(=O)=O)cc2)cc1 [Celecoxib] | 23200 ± 1600
11 | O=C(O)CCC(=O)Nc1ccc(S(=O)(=O)Nc2nccs2)cc1 [Succinylsulfathiazole] | 25300 ± 5300
12 | COC(=O)C1=C(C)NC(C)=C(C(=O)OC(C)C)C1c1cccc2nonc12 (centres undefined) [Isradipine] | 22300 ± 2200
13 | C=CC1=C(C(=O)O)N2C(=O)[C@@H](NC(=O)/C(=N\OCC(=O)O)c3csc(N)n3)[C@H]2SC1 [Cefixime] | 26000 ± 1600
14 | C=C[C@]1(C)C[C@@H](OC(=O)CSC(C)(C)CNC(=O)[C@H](N)C(C)C)[C@]2(C)[C@H](C)CC[C@]3(CCC(=O)[C@H]32)[C@@H](C)[C@@H]1O [Valnemulin HCl] | 25700 ± 5700
15 | CN1C[C@@H]2C[C@H]1CN2c1cc2c(cc1F)c(=O)c(C(=O)O)cn2C1CC1 [Danofloxacin Mesylate] | 23900 ± 3400
16 | CC1=CC[C@@](O)(C(C)C)CC1 [Terpinen-4-ol] | 20500 ± 1800
17 | CC1(C)S[C@@H]2[C@H](NC(=O)[C@H](N)c3ccc(O)cc3)C(=O)N2[C@H]1C(=O)O [Amoxicillin] | 19500 ± 3400
18 | COC(=O)C1=C(C)NC(C)=C(C(=O)OCC(C)C)C1c1ccccc1[N+](=O)[O-] (centres undefined) [Nisoldipine] | 22300 ± 960
19 | N#Cc1ccc2[nH]cc(CCCCN3CCN(c4ccc5oc(C(N)=O)cc5c4)CC3)c2c1 [Vilazodone] | 25300 ± 3600
20 | O=C1CCc2cc(OCCCCc3nnnn3C3CCCCC3)ccc2N1 [Cilostazol] | 26000 ± 4800
21 | CC[C@H]1OC(=O)[C@H](C)[C@@H](O[C@H]2C[C@@](C)(OC)[C@@H](O)[C@H](C)O2)[C@H](C)[C@@H](O[C@@H]2O[C@H](C)C[C@H](N(C)C)[C@H]2O)[C@](C)(O)C[C@@H](C)C(=O)[C@H](C)[C@H]2OC(=O)O[C@@]21C [Erythromycin Cyclocarbonate] | 27200 ± 620
22 | CCC(C)n1ncn(-c2ccc(N3CCN(c4ccc(OCC5COC(Cn6cncn6)(c6ccc(Cl)cc6Cl)O5)cc4)CC3)cc2)c1=O (centres undefined) [Itraconazole] | 6670 ± 1700
23 | O=C(Cn1cnnn1)N[C@@H]1C(=O)N2C(C(=O)O)=C(CSc3nncs3)CS[C@H]12 [Ceftezole sodium] | 21400 ± 9400
24 | Cc1cc(NS(=O)(=O)c2ccc(N)cc2)no1 [Sulfamethoxazole] | 23800 ± 4800
25 | CC(C)(O/N=C(\C(=O)N[C@@H]1C(=O)N2C(C(=O)[O-])=C(C[n+]3ccccc3)CS[C@H]12)c1csc(N)n1)C(=O)O [Ceftazidime] | 28100 ± 5600
26 | CN1CCC[C@@H]1Cc1c[nH]c2ccc(CCS(=O)(=O)c3ccccc3)cc12 [Eletriptan HBr] | 26400 ± 9000
27 | COc1ccc2[nH]c([S@@+]([O-])Cc3ncc(C)c(OC)c3C)nc2c1 [NEXIUM (esomeprazole magnesium)] | 20900 ± 2900
28 | CCCCN1CCCC[C@H]1C(=O)Nc1c(C)cccc1C [Levobupivacaine HCl] | 28200 ± 3300
29 | CC(=O)OCC1=C(C(=O)O)N2C(=O)[C@@H](NC(=O)Cc3cccs3)[C@H]2SC1 [Cephalothin] | 21400 ± 6100

A draw from above in order of molecular weight, high to low.
Row | SMILES | imaged cell count per well
13 | C=CC1=C(C(=O)O)N2C(=O)[C@@H](NC(=O)/C(=N\OCC(=O)O)c3csc(N)n3)[C@H]2SC1 [Cefixime] | 26000 ± 1600
19 | N#Cc1ccc2[nH]cc(CCCCN3CCN(c4ccc5oc(C(N)=O)cc5c4)CC3)c2c1 [Vilazodone] | 25300 ± 3600
11 | O=C(O)CCC(=O)Nc1ccc(S(=O)(=O)Nc2nccs2)cc1 [Succinylsulfathiazole] | 25300 ± 5300

From the supplement of paper PMC8975748
